Assay results: patent US20230339968A1, “KRAS Gl2C INHIBITORS” (Eli Lilly and Company, priority 2019, published 2023)
Some results were stated once for a whole list of compounds, not compound by compound.

The molecules below were run on A549 (lung) (assay: CellTiterGlo Cell Proliferation Assay (2D), A549 (KRas G12S)). Conditions: A549 cells with KRas G12S mutation, 2D culture.
Assay type: cell-based
Method: The purpose of this assay is to evaluate the growth of KRas G12C mutant tumor lines following treatment with a test compound. A panel of tumor cell lines harboring KRas G12C or other KRas mutations are collected (Table 25). All cell lines are from ATCC or other sources indicated.
Typically cells are cultured in RPMI1640 or Dulbecco's modified Eagle's medium (DMEM, GIBCO) supplemented with 10% FBS (GIBCO, Invitrogen). […] The cells are treated with compound for 96 hours, and then are analyzed for viability using the CellTiterGlo® Luminescent Cell Viability Assay® (Promega #G7572 for 2D) according to manufacturer's instructions and an EnVision™ plate reader. Nonlinear regression and sigmoidal dose-response curves are used to calculate the half maximal inhibitory concentration (IC50) with GraphPad Prism 4® software.

Question: For `C=CC(=O)N1CCN2C(=O)c3cc(Cl)c(-c4ccc(F)c5sc(N)nc45)c(Cl)c3OCC[C@H]2C1` (atropisomer, axis not shown) [Example 1, (13aS)-9-(2-Amino-7-fluoro-1,3-benzothiazol-4-yl)-8,10-dichloro-2-prop-2-enoyl-1,3,4,12,13,13a-hexahydropyrazino[2,1-d][1,5]benzoxazocin-6-one], which “anti-proliferation activity (in words)” value is on record?
Answer: The value was “little activity”.

Question: How did the “anti-proliferation activity (in words)” value turn out when `C=CC(=O)N1CCN2C(=O)c3cc(F)c(-c4cccc5sc(N)c(C#N)c45)c(Cl)c3OCC[C@H]2C1` [Example 34, 4-[(13aS)-10-Chloro-8-fluoro-6-oxo-2-prop-2-enoyl-1,3,4,12,13,13a-hexahydropyrazino[2,1-d][1,5]benzoxazocin-9-yl]-2-amino-benzothiophene-3-carbonitrile] was run?
Answer: Its value is “little activity”.

Question: `C=CC(=O)N1CCN2C(=O)c3cc(F)c(-c4ccc(F)c5sc(N)c(C#N)c45)c(Cl)c3OC[C@H]2C1` [Example 36, 4-[(4aR)-7-Chloro-9-fluoro-11-oxo-3-prop-2-enoyl-2,4,4a,5-tetrahydro-1H-pyrazino[2,1-c][1,4]benzoxazepine-8-yl]-2-amino-7-fluoro-benzothiophene-3-carbonitrile] was tested. Which “anti-proliferation activity (in words)” value did it give?
Answer: The value was “little activity”.
